PubChem BioAssay AID1259405 | NCATS, 2018

Purpose: 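Knock-downs that lift recombinant protein yield in hamster ovary cells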 (primary screen)
System: Chinese hamster CHO-K1 ovary cells with stable secreted eGFP expression
Knock-down reagent: single siRNA against mouse genes, 0.8 pmol siRNA per well (2 µl of 400 nM stock)
Duration: 3 days
Measurement: 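Percent of the per-plate non-targeting control median for intracellular GFP per well by laser scanning cytometry and for cell viability by ATP luminescence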
Direction: GFP, % of control: higher = more GFP per well, higher productivity; viability (ATP), % of control: higher = more viable cells (more ATP)
Rule for the call: 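Called active when intracellular GFP, relative to negative control, is at or above 120%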
The whole screen tested about 50,000 reagents; shown is an unselected part. In the full data, about 4,000 (8%) got an active call. 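Mouse siRNA library applied to hamster cells; one well for each siRNA.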 A number with no mark means an inactive call. Reagents against one gene are numbered here.

| target gene | reagent | GFP, % of control | viability (ATP), % of control |
| --- | --- | --- | --- |
| Lypla1 | 1 | 81.8 | 63.9 |
| Lypla1 | 2 | 66.9 | 70.1 |
| Lypla1 | 3 | 67.4 | 86.1 |
| Rac2 | 1 | 101 | 88.5 |
| Rac2 | 2 | 80.6 | 91.7 |
| Rac2 | 3 | 61.6 | 64.4 |
| F2 | 1 | 96.6 | 101 |
| F2 | 2 | 72.3 | 73.9 |
| F2 | 3 | 86.3 | 74.5 |
| Cul4b | 1 | 90.7 | 85.4 |
| Cul4b | 2 | 85.3 | 61.8 |
| Cul4b | 3 | 73.8 | 79 |
| Abca14 | 1 | 88.4 | 65.7 |
| Abca14 | 2 | 51 | 33.3 |
| Abca14 | 3 | 81 | 92 |
| Or51l14 | 1 | 63.7 | 54.6 |
| Or51l14 | 2 | 83 | 80.8 |
| Or51l14 | 3 | 63.3 | 65.9 |
| Capn12 | 1 | 72.9 | 85.1 |
| Capn12 | 2 | 21 | 33.8 |
| Capn12 | 3 | 99.8 | 77.7 |
| Ctsd | 1 | 75.5 | 83.9 |
| Ctsd | 2 | 65 | 80.3 |
| Ctsd | 3 | 71.5 | 41.8 |
| Htatsf1 | 1 | 65.4 | 80.7 |
| Htatsf1 | 2 | 46.3 | 66.4 |
| Htatsf1 | 3 | 46.2 | 93.4 |
| Fstl5 | 1 | 78.4 | 66.9 |
| Fstl5 | 2 | 120 (active) | 132 |
| Ing2 | 1 | 88.7 | 87.2 |
| Ing2 | 2 | 94.6 | 71.7 |
| Or13a1 | 1 | 72.9 | 49.1 |
| Or13a1 | 2 | 82.9 | 88.8 |
| Or13a1 | 3 | 40.9 | 45.2 |
| Ubqln3 | 1 | 52 | 48.7 |
| Ubqln3 | 2 | 71.9 | 105 |
| Ubqln3 | 3 | 54.1 | 98.1 |
| Rab39a | 1 | 73.5 | 117 |
| Rab39a | 2 | 52.4 | 62.1 |
| Rab39a | 3 | 85.2 | 88.3 |
| Ccdc184 | 1 | 32.3 | 41.4 |
| Ccdc184 | 2 | 37.5 | 55.1 |
| Ccdc184 | 3 | 37.5 | 40.9 |
| Abtb1 | 1 | 99.8 | 80.2 |
| Abtb1 | 2 | 75.5 | 106 |
| Abtb1 | 3 | 76.7 | 79.6 |
| Synrg | 1 | 153 (active) | 85.2 |
| Synrg | 2 | 75.6 | 101 |
| Synrg | 3 | 81.6 | 89.4 |
| Efhb | 1 | 57.6 | 75.8 |
| Efhb | 2 | 70.2 | 48.4 |
| Efhb | 3 | 69.3 | 80.8 |
| Mtx2 | 1 | 94.5 | 72.3 |
| Mtx2 | 2 | 75.1 | 61.4 |
| Mtx2 | 3 | 32.3 | 47.8 |
| Unc5c | 1 | 86.2 | 77.8 |
| Unc5c | 2 | 72.7 | 73.7 |
| Unc5c | 3 | 53.5 | 71.4 |

8 neighbouring records already listed, for reference:
| target gene | reagent | GFP, % of control | viability (ATP), % of control |
| --- | --- | --- | --- |
| Or13a1 | 1 | 72.9 | 49.1 |
| Or13a1 | 2 | 82.9 | 88.8 |
| Or13a1 | 3 | 40.9 | 45.2 |
| Ubqln3 | 1 | 52 | 48.7 |
| Ubqln3 | 2 | 71.9 | 105 |
| Ubqln3 | 3 | 54.1 | 98.1 |
| Rab39a | 1 | 73.5 | 117 |
| Rab39a | 2 | 52.4 | 62.1 |
